Experimental data from publication PMC2211753.
These are yes or no findings as the source states them, for the method shown. A result given as binding can be weak or reduced; the word gives no strength. Sequences can lack the tags named with a protein.

Legend:
[1] = molecular target: Vpr-W54R fused to the Gal4 DNA binding domain (HIV-1 (strain not stated)) (UniProt P05928); assay: two-hybrid; L40 yeast strain; Vpr fused to the Gal4 DNA binding domain (lower panels of Figure 1A) with Gal4AD hybrids; growth without histidine and β-gal assay
[2] = molecular target: Vpr-R90K fused to the Gal4 DNA binding domain (HIV-1 (strain not stated)) (UniProt P05928); assay: as above

B1: human CG1 nucleoporin fused to the Gal4 activation domain (protein, UniProt O15504 1-423)
chain: MAICQFFLQGRCRFGDRCWNEHPGARGAGGGRQQPQQQPSGNNRRGWNTTSQRYSNVIQPSSFSKSTPWGGSRDQEKPYFSSFDSGASTNRKEGFGLSENPFASLSPDEQKDEKKLLEGIVKDMEVWESSGQWMFSVYSPVKKKPNISGFTDISPEELRLEYHNFLTSNNLQSYLNSVQRLINQWRNRVNELKSLNISTKVALLSDVKDGVNQAAPAFGFGSSQAATFMSPGFPVNNSSSDNAQNFSFKTNSGFAAASSGSPAGFGSSPAFGAAASTSSGISTSAPAFGFGKPEVTSAASFSFKSPAASSFGSPGFSGLPASLATGPVRAPVAPAFGGGSSVAGFGSPGSHSHTAFSKPSSDTFGNSSISTSLSASSSIIATDNVLFTPRDKLTVEELEQFQSKKFTLGKIPLKPPPLELLNV
[1]
  binding: binds
[2]
  binding: binds
